Measured values reported in paper PMC10279527, “Structural basis of metabolite transport by the chloroplast outer envelope channel OEP21” (Nature Structural & Molecular Biology, 2023).
These are yes or no findings as the source states them, for the method shown. Some entries that bind do so weakly or less than the wild type.

Biological target: OEP21, endogenous, in chloroplast outer envelope vesicles (garden pea) (UniProt Q9SM57)
Assay: native gel or EMSA; Blue Native PAGE (7.5-15% gel) of chloroplasts enriched with outer envelope vesicles, solubilised with 1% DDM; second dimension SDS-PAGE; immunoblot against OEP21

binding: binds
Substance: OEP21, endogenous, in chloroplast outer envelope vesicles (from UniProt Q9SM57 1-177)
